Drawing on publication doi:10.64898/2025.12.17.694969, this text covers binding for 3 molecules.

Positions count from the first letter of the chain named. Where two headings read alike, the source gives them in different places. No constants are given. Whether binding was seen depends on the method and setting. In cells and extracts the contact can be indirect. A yes stands for co-enrichment or nearness to the bait. Other partners may have been found. For some of these results: No binding means not detected with the bait. Tags and fused reporters may be left off the sequences shown.

Assay in all cases: affinity purification with mass spectrometry
Assay [1] addresses T1, Symplekin with twin-StrepII tag (S. pombe Symplekin/Pta1) (S. pombe) (UniProt Q10222).
T1 sequence: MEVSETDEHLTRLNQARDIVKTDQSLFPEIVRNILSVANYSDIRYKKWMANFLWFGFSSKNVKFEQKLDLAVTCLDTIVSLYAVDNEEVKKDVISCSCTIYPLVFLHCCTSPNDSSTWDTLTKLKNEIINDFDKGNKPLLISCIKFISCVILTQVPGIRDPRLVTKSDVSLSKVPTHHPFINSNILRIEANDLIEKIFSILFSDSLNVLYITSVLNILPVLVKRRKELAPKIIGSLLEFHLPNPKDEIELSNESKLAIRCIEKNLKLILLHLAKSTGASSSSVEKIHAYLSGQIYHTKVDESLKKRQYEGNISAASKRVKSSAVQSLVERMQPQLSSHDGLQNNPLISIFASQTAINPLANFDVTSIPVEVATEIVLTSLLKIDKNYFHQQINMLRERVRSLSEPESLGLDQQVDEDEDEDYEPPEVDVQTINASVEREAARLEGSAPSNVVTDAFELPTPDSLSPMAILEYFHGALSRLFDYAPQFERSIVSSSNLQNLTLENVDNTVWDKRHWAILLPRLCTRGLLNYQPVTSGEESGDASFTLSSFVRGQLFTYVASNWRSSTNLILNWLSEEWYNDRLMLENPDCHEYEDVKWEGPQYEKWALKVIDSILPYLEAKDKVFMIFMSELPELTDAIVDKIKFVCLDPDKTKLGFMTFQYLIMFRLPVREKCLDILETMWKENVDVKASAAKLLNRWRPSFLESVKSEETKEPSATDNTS

The target of assay [2] is T2, V5-tagged Symplekin^DPR-AAA (S. pombe) (UniProt Q10222).
T2 sequence: T1 sequence with D160A, P161A, R162A

Assay [3] has as its target T3, V5-tagged Symplekin^WT (S. pombe) (UniProt Q10222).
T3 sequence: T1 sequence

In assay [4] the target is T1, Symplekin with twin-StrepII tag (S. pombe Symplekin/Pta1) (S. pombe). The source holds these as a separate data set.

Regarding WDR82 (S. pombe WDR82/Swd2.2), in assay [1], the binding result is “binds”. Consider WDR82 (endogenous, S. pombe), for which the binding entry is reported as “no binding” in assay [2] and “binds” in assay [3].

B1: Ssu72 (S. pombe) (enzyme, UniProt O42868 1-197)
chain: MAPKTNLQISVICASNQNRSMEAHNVLKNAGYQVDSFGTGSAVRLPGPSIDKPNIYQFGYPYDEIYKELEAQDSRLYTANGLLKMLDRNRRIKRAPCRWQDQDSIYNIVITCEERCYDAICEDLYRRGETLNRPVYLINVDIKDNHEEASVGGKAILDLVNKLTEAQDKLEELFPSIMADFQSNHPKLPVLYTIHFF
As for B1, in assay [4], the binding result is reported as “binds”.
